The values below come from US20160009772A1 (published 2016).

This series deals with the molecule itself. The series can be described thus: TR-FRET. On the technique in general: In TR-FRET formats the signal depends on donor and acceptor labels being close together.

B1: IRF5(222-467, S430D), S430D phosphomimetic construct of IRF5 (222-467) (other)
chain: EQLLPDLLISPHMLPLTDLEIKFQYRGRPPRALTISNPHGCRLFYSQLEATQEQVELFGPISLEQVRFPSPEDIPSDKQRFYTNQLLDVLDRGLILQLQGQDLYAIRLCQCKVFWSGPCASAHDSCPNPIQREVKTKLFSLEHFLNELILFQKGQTNTPPPFEIFFCFGEEWPDRKPREKKLITVQVVPVAARLLLEMFSGELSWSADDIRLQISNPDLKDRMVEQFKELHHIWQSQQRLQPVAQA
The Kd is the constant that tells how readily two partners part at equilibrium. Lower therefore signals a tighter complex. Protein B1 gave a Kd of 600 nM.
